Results reported in publication PMC1940015.
Positions count from the first letter of the chain named. No constants are given. Whether binding was seen depends on the method and setting. In cells and extracts the contact can be indirect. Some binding calls cover weakened binding; strength is not graded here.

Chains of the proteins cited; added tags and fusions are not shown.
UniProt Q66H76: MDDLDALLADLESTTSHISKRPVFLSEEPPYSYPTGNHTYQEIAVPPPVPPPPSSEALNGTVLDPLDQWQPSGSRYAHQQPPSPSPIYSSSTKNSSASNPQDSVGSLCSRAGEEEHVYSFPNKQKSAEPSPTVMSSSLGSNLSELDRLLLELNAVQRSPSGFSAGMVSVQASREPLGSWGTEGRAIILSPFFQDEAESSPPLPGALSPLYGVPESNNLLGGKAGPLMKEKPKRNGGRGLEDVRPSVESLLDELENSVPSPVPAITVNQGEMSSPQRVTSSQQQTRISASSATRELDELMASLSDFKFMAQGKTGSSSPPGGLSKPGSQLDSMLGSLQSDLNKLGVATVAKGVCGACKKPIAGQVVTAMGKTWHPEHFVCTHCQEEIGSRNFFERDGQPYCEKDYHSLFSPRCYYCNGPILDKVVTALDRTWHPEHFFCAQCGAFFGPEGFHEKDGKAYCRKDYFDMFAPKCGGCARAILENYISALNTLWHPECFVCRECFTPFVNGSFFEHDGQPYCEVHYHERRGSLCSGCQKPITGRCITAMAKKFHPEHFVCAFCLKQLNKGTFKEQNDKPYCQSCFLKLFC

How the values were obtained:
[1] = target: T1, wild-type human α4 integrin, full length (human) (UniProt P13612); test: co-IP; 1% Triton X-100 lysates of biotin-labelled PC12 cells expressing the α4 constructs; immunoprecipitated overnight at 4°C with anti-human α4 extracellular domain antibody; beads washed with 0.5 M NaCl, 1% NP40 buffer; western blot with anti-paxillin antibody
T1 sequence (chain, biotin (cell surface molecules labelled with NHS-LC-Biotin)): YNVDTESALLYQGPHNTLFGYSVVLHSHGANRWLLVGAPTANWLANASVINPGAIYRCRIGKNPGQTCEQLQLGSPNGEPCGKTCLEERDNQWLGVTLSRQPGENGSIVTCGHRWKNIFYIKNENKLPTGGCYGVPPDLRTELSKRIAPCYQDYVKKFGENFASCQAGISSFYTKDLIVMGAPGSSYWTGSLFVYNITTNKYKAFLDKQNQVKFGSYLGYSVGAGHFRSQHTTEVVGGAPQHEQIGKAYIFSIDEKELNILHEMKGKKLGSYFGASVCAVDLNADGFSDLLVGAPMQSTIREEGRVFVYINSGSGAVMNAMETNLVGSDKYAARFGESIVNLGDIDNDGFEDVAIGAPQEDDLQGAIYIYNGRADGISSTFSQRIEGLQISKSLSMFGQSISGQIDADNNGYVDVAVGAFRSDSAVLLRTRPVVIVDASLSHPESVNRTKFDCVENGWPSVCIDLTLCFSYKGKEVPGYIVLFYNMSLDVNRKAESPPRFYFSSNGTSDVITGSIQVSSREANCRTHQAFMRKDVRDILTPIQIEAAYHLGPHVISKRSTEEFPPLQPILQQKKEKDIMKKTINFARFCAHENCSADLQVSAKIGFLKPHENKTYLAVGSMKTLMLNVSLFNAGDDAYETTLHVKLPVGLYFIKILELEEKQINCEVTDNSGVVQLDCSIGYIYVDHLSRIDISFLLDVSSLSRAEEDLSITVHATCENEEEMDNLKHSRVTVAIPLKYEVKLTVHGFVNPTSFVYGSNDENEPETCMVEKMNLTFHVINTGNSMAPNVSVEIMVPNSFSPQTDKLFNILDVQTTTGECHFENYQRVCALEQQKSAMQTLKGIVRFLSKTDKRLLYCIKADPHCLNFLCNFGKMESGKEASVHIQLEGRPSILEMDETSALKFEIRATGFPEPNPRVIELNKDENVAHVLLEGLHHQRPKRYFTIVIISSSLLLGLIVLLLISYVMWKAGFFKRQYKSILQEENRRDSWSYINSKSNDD

α4S988A (human) = target: T2, α4S988A (human) (UniProt P13612); test: as above
T2 sequence (chain, biotin (cell surface molecules labelled with NHS-LC-Biotin)): T1 sequence (chain, biotin (cell surface molecules labelled with NHS-LC-Biotin)) with S988A

binding [1]: binds | binding (α4S988A (human)): binds
Substance: paxillin (endogenous in PC12 cells) (from UniProt Q66H76 1-586)
